# Data as given in paper PMC5996148.
# This is one part of the list. For some assays here: The exact form of the protein is not confirmed.
# Experiments:
# Experiment in all cases: protein microarray (ProtoArray v5.0), streptavidin-Alexa Fluor 647
# Settings in all cases: 3'-biotin; 20 mM Tris (pH 7.5), 5 mM MgCl2, 100 mM KCl, 0.1% Tween-20, A/T-rich and random oligonucleotide blockers; temperature not stated; high values mean tight binding
# [1] = system: mRNA similar to hypothetical protein FLJ20234 (human)
# o (human) = system: o (human)
# [2] = system: protein for MGC:19786 (human)
# rC (human) = system: rC (human)
# [3] = system: rRNA-processing protein FCF1 homolog (human)
# raptor (human) = system: raptor (human)
# [4] = system: tRNA modification GTPase GTPBP3, mitochondrial (human)
# [5] = system: 14-3-3 protein sigma (human)
# [6] = system: 26S proteasome non-ATPase regulatory subunit 7 (human)
# [7] = system: 3-hydroxyanthranilate 3,4-dioxygenase (human)
# [8] = system: 40S ribosomal protein SA (human)
# 5 (human) = system: 5 (human)
# [9] = system: 60S ribosomal protein L29 (human)
# [10] = system: A-kinase anchor protein 14 (human)
# [11] = system: A.T hook DNA-binding motif-containing protein 1 (human)
# AATF (human) = system: AATF (human)
# ABHD4 (human) = system: ABHD4 (human)
# ACAD9 (human) = system: ACAD9 (human)
# ACAN (human) = system: ACAN (human)
# ACBD6 = target: T1, ACBD6 (UniProt Q9BR61)
# T1 sequence: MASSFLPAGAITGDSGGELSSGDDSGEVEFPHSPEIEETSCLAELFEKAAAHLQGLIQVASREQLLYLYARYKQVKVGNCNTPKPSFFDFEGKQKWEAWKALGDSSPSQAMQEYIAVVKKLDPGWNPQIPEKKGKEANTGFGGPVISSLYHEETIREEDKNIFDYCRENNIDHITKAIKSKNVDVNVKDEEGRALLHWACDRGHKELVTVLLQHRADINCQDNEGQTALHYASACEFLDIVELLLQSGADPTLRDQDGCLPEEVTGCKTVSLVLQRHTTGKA
Sequence,binding signal [1],binding signal (o (human)),binding signal [2],binding signal (rC (human)),binding signal [3],binding signal (raptor (human)),binding signal [4],binding signal [5],binding signal [6],binding signal [7],binding signal [8],binding signal (5 (human)),binding signal [9],binding signal [10],binding signal [11],binding signal (AATF (human)),binding signal (ABHD4 (human)),binding signal (ACAD9 (human)),binding signal (ACAN (human)),binding signal (ACBD6)
GGGAGGCTGAGGCAGG [G4-1 biotinylated (PQS2)],-0.323 z-score,-0.309 z-score,-0.353 z-score,-0.338 z-score,3.18 z-score,-0.305 z-score,-0.333 z-score,–,–,–,–,–,–,–,–,–,–,–,–,–
GGTGACAGGGGTATGGGGAGGGG [G4-2 biotinylated (Ct1)],–,–,–,–,–,–,–,-0.4 z-score,-0.38 z-score,-0.4 z-score,-0.383 z-score,-0.375 z-score,4.9 z-score,-0.384 z-score,-0.39 z-score,-0.375 z-score,-0.366 z-score,-0.373 z-score,-0.377 z-score,-0.379 z-score
